Test results published in PMC11304329.

Protein sequences, listed by entry. Tags and fused reporters are not part of them. Lines headed by an entry give the natural chain unless they say otherwise; changes in a name come on top.
UniProt Q7K1U9: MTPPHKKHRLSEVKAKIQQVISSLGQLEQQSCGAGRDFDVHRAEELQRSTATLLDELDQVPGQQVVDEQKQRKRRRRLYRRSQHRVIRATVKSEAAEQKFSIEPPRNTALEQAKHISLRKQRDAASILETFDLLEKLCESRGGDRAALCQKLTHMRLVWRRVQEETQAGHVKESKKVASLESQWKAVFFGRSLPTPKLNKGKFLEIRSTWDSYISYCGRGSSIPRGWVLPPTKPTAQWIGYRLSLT
UniProt Q9VWH9: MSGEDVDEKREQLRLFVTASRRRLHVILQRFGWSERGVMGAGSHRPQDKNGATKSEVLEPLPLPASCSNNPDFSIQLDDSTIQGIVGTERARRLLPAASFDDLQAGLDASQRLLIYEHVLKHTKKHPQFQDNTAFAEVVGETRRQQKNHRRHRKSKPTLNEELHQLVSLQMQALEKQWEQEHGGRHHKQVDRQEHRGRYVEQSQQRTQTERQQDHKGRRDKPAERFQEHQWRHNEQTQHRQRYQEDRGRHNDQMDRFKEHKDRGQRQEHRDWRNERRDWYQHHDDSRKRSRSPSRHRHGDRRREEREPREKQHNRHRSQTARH
UniProt A8DZ10: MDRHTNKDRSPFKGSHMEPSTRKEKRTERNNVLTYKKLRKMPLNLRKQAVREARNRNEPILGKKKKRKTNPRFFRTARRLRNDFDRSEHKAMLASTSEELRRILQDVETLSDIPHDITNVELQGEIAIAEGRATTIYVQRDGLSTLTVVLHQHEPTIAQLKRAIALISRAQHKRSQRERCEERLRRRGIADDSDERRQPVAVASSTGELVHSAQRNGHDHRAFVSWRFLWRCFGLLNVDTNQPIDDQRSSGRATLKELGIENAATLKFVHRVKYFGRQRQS

Tests used:
Dm59K (Drosophila) = Dm59K (Drosophila) (UniProt Q7K1U9); experiment: co-IP; two separately expressed FLAG- and V5-tagged proteins in S2 cells; FLAG magnetic beads or V5 agarose beads; IP buffer 20 mM Tris-HCl pH 8.0, 150 mM NaCl, 0.5% NP40, 1% Triton X-100; also with RNase A and/or DNase I on the washed beads; western blot
Dm48K (Drosophila) = Dm48K (Drosophila) (UniProt Q9VWH9); experiment: as above

| Substance | binding (Dm59K (Drosophila)) | binding (Dm48K (Drosophila)) |
| --- | --- | --- |
| Dm25K (from UniProt A8DZ10) | binds weakly | no binding |
| Dm48K (from UniProt Q9VWH9) | binds | – |

No constants are given. Whether binding was seen depends on the method and setting. In cells and extracts the contact can be indirect. For part of these data: Binding calls can cover weak binding; strength is not graded here.
